The supplement of paper PMC7661543
The effect of the compound repeats well; differences between the knockouts mostly do not.

Tested on: BT-20
Experiment: relative cell number vs DMSO control (72 h) (% of DMSO); higher = less growth inhibition (more cells)
Experimental: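 QMAP-Seq: a pool of 5 breast cancer cell lines (ZR-75-1, SKBR3, HCC-38, MDA-MB-231, BT-20), each carrying 12 doxycycline-inducible Cas9 sgRNA perturbations (11 knockouts plus non-targeting sgNT), was treated with compounds for 72 h at four 10-fold doses (10 nM-10 uM or 1 nM-1 uM range). Barcodes were amplified and sequenced, and cell number was interpolated from 293T spike-in standard curves. The result is expressed as % of the median of DMSO wells. Two biological replicates.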

CC(C)c1cc(-c2n[nH]c(=O)n2-c2ccc3c(ccn3C)c2)c(O)cc1O [Ganetespib]
Settings | relative cell number
sgRNA knockout: sgATF3, 1 nM | 88.5
sgRNA knockout: sgATF3, 10 nM | 99.2
sgRNA knockout: sgATF3, 100 nM | 42.1
sgRNA knockout: sgATF3, 1000 nM | 44.8
sgRNA knockout: sgATF4, 1 nM | 94.7
sgRNA knockout: sgATF4, 10 nM | 115
sgRNA knockout: sgATF4, 100 nM | 34.6
sgRNA knockout: sgATF4, 1000 nM | 43.9
sgRNA knockout: sgATF6, 1 nM | 85.5
sgRNA knockout: sgATF6, 10 nM | 100.2
sgRNA knockout: sgATF6, 100 nM | 44.2
sgRNA knockout: sgATF6, 1000 nM | 40.2
sgRNA knockout: sgATG7, 1 nM | 104
sgRNA knockout: sgATG7, 10 nM | 101
sgRNA knockout: sgATG7, 100 nM | 45.7
sgRNA knockout: sgATG7, 1000 nM | 37.4
sgRNA knockout: sgERN1, 1 nM | 93.5
sgRNA knockout: sgERN1, 10 nM | 85.5
sgRNA knockout: sgERN1, 100 nM | 37.5
sgRNA knockout: sgERN1, 1000 nM | 35.8
sgRNA knockout: sgHSF1, 1 nM | 96.3
sgRNA knockout: sgHSF1, 10 nM | 98.7
sgRNA knockout: sgHSF1, 100 nM | 39.1
sgRNA knockout: sgHSF1, 1000 nM | 37.5
sgRNA knockout: sgHSF2, 1 nM | 86.5
sgRNA knockout: sgHSF2, 10 nM | 99.8
sgRNA knockout: sgHSF2, 100 nM | 41.9
sgRNA knockout: sgHSF2, 1000 nM | 35
sgRNA knockout: sgKEAP1, 1 nM | 88
sgRNA knockout: sgKEAP1, 10 nM | 101
sgRNA knockout: sgKEAP1, 100 nM | 37.5
sgRNA knockout: sgKEAP1, 1000 nM | 40
sgRNA knockout: sgNFE2L2, 1 nM | 101
sgRNA knockout: sgNFE2L2, 10 nM | 91.6
sgRNA knockout: sgNFE2L2, 100 nM | 44.7
sgRNA knockout: sgNFE2L2, 1000 nM | 41.3
sgRNA knockout: sgSLC35F2, 1 nM | 92.4
sgRNA knockout: sgSLC35F2, 10 nM | 113
sgRNA knockout: sgSLC35F2, 100 nM | 37.3
sgRNA knockout: sgSLC35F2, 1000 nM | 42.6
sgRNA knockout: sgXBP1, 1 nM | 95.1
sgRNA knockout: sgXBP1, 10 nM | 101
sgRNA knockout: sgXBP1, 100 nM | 37.01
sgRNA knockout: sgXBP1, 1000 nM | 37.5

Cc1sc2c(c1C)C(c1ccc(Cl)cc1)=N[C@@H](CC(=O)OC(C)(C)C)c1nnc(C)n1-2 [(+)-JQ1]
Settings | relative cell number
sgRNA knockout: sgATF3, 10 nM | 99.9
sgRNA knockout: sgATF3, 100 nM | 113.9
sgRNA knockout: sgATF3, 1000 nM | 98.4
sgRNA knockout: sgATF3, 10000 nM | 76.2
sgRNA knockout: sgATF4, 10 nM | 103
sgRNA knockout: sgATF4, 100 nM | 118
sgRNA knockout: sgATF4, 1000 nM | 105
sgRNA knockout: sgATF4, 10000 nM | 94.73
sgRNA knockout: sgATF6, 10 nM | 86.4
sgRNA knockout: sgATF6, 100 nM | 121
sgRNA knockout: sgATF6, 1000 nM | 97.6
sgRNA knockout: sgATF6, 10000 nM | 79.6
sgRNA knockout: sgATG7, 10 nM | 108
sgRNA knockout: sgATG7, 100 nM | 116
sgRNA knockout: sgATG7, 1000 nM | 102
sgRNA knockout: sgATG7, 10000 nM | 90.5
sgRNA knockout: sgERN1, 10 nM | 96.1
sgRNA knockout: sgERN1, 100 nM | 119
sgRNA knockout: sgERN1, 1000 nM | 102.9
sgRNA knockout: sgERN1, 10000 nM | 82.2
sgRNA knockout: sgHSF1, 10 nM | 105
sgRNA knockout: sgHSF1, 100 nM | 115
sgRNA knockout: sgHSF1, 1000 nM | 107
sgRNA knockout: sgHSF1, 10000 nM | 90.8
sgRNA knockout: sgHSF2, 10 nM | 83.6
sgRNA knockout: sgHSF2, 100 nM | 105
sgRNA knockout: sgHSF2, 1000 nM | 91.6
sgRNA knockout: sgHSF2, 10000 nM | 87.8
sgRNA knockout: sgKEAP1, 10 nM | 101
sgRNA knockout: sgKEAP1, 100 nM | 118
sgRNA knockout: sgKEAP1, 1000 nM | 104
sgRNA knockout: sgKEAP1, 10000 nM | 88.4
sgRNA knockout: sgNFE2L2, 10 nM | 92.7
sgRNA knockout: sgNFE2L2, 100 nM | 123
sgRNA knockout: sgNFE2L2, 1000 nM | 97.4
sgRNA knockout: sgNFE2L2, 10000 nM | 76.2
sgRNA knockout: sgSLC35F2, 10 nM | 99.3
sgRNA knockout: sgSLC35F2, 100 nM | 124
sgRNA knockout: sgSLC35F2, 1000 nM | 104
sgRNA knockout: sgSLC35F2, 10000 nM | 74
sgRNA knockout: sgXBP1, 10 nM | 106
sgRNA knockout: sgXBP1, 100 nM | 111
sgRNA knockout: sgXBP1, 1000 nM | 102
sgRNA knockout: sgXBP1, 10000 nM | 86.1
